These are yes or no findings as the source states them, for the method shown. In cells and extracts the contact can be indirect.
Target: HA–WDR34 (human) (UniProt Q96EX3)
Assay: co-IP; anti-HA immunoprecipitation from RPE1 cells (WT and WDR60 KO) expressing HA–WDR34, immunoblot; as described in Vuolo et al., 2018

Sequences of proteins named here, by UniProt entry; tags and fusion partners are left off.
UniProt Q96EX3: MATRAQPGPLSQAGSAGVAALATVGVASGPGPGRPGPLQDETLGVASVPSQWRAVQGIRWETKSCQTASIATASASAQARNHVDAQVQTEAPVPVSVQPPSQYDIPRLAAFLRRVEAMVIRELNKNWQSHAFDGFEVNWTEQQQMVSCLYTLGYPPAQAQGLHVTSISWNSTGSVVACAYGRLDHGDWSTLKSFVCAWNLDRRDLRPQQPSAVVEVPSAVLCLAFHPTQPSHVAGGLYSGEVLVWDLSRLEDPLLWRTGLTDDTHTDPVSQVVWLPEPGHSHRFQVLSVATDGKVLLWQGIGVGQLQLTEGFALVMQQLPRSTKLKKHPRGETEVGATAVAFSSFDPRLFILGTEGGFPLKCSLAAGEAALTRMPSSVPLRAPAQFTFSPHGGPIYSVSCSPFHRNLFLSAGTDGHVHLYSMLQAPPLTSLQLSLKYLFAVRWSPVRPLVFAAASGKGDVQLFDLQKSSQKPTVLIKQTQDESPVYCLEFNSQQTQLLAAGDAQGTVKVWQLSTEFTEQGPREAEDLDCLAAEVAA
UniProt Q9Y4F5: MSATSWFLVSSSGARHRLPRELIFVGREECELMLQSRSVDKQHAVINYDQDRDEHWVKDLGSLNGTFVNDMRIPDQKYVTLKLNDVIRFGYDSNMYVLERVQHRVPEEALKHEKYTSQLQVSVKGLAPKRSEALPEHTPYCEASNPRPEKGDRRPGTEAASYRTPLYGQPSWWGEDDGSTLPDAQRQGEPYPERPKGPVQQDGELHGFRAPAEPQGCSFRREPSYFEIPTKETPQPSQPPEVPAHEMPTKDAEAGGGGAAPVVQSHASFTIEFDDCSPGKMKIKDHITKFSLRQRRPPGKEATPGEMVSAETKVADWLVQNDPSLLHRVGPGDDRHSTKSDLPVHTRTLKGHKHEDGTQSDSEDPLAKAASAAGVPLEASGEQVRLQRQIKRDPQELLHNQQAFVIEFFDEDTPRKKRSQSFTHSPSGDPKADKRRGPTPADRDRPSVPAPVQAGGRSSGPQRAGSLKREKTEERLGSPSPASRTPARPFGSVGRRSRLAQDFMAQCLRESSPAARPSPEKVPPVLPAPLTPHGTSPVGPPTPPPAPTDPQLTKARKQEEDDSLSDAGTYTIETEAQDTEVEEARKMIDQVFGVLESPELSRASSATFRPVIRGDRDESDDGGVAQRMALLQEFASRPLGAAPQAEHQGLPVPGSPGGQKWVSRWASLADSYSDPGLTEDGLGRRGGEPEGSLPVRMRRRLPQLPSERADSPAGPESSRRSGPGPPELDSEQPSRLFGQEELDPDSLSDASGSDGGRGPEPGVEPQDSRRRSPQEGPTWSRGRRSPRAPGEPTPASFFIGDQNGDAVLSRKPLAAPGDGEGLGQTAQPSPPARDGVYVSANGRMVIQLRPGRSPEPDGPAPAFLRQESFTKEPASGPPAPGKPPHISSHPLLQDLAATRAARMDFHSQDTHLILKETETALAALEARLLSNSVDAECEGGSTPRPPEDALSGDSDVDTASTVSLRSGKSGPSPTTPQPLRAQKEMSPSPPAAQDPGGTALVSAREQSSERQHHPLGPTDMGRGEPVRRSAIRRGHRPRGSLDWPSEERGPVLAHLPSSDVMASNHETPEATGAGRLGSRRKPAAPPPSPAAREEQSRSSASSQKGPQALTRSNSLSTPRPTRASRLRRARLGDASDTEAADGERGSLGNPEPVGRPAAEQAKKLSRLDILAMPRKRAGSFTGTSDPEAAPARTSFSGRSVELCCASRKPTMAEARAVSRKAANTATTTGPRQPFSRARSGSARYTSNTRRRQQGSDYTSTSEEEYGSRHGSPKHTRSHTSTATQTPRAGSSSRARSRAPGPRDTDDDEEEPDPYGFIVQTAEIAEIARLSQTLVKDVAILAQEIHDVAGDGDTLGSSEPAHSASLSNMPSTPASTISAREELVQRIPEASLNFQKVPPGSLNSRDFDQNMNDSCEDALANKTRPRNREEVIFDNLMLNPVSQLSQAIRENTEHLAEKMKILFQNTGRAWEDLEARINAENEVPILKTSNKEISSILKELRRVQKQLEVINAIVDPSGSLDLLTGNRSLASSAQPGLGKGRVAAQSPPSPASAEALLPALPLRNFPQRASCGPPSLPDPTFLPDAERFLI

## CEP170B (from UniProt Q9Y4F5 1-1589)
  binding: no binding
